Earlier results in patent publication US11446277B2, “Penetrating pain relief cream” (priority 2019, dated 2022).

## CCCCCc1cc(O)c2c(c1)OC(C)(C)[C@@H]1CCC(C)=C[C@@H]21 [THC, Δ9-tetrahydrocannabinol]
Organic solvents, specifically lipids and alcohols
  solubility in most organic solvents: good solubility
water
  solubility in water: very low solubility
